Data as given in paper PMC4632300.
These are yes or no findings as the source states them, for the method shown. Binding seen in cells or lysates may run through a third protein. Some binding calls cover weakened binding; strength is not graded here. Each block holds one molecule with its values, some of them ahead of it.

Sequences of proteins named here, by UniProt entry; tags and fusion partners are left off.
UniProt Q9Z1E3: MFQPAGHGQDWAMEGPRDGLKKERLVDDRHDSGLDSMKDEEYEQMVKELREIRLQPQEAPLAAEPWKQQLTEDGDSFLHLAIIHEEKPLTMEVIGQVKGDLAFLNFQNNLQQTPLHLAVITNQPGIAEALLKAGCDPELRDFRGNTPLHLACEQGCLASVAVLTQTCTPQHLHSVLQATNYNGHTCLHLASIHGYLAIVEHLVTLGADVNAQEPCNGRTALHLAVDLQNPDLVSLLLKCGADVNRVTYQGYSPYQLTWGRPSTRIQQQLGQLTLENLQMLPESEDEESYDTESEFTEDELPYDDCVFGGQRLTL
UniProt Q99J83: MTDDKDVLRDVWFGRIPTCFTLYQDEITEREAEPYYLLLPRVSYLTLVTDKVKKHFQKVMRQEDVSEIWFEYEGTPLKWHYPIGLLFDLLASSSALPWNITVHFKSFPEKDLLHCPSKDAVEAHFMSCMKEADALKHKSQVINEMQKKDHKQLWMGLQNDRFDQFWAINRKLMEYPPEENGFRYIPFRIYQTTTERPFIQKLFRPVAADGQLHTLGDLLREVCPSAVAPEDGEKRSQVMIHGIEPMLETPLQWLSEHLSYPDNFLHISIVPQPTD

Experiments:
[1] = biological target: T1, RelB (mouse (endogenous in BMDM-derived TAM)) (UniProt Q04863); test: co-IP; immunoprecipitation with RelB antibody from TAM treated with or without baicalin; immunoblotting; IP samples normalised by RelB
T1 sequence: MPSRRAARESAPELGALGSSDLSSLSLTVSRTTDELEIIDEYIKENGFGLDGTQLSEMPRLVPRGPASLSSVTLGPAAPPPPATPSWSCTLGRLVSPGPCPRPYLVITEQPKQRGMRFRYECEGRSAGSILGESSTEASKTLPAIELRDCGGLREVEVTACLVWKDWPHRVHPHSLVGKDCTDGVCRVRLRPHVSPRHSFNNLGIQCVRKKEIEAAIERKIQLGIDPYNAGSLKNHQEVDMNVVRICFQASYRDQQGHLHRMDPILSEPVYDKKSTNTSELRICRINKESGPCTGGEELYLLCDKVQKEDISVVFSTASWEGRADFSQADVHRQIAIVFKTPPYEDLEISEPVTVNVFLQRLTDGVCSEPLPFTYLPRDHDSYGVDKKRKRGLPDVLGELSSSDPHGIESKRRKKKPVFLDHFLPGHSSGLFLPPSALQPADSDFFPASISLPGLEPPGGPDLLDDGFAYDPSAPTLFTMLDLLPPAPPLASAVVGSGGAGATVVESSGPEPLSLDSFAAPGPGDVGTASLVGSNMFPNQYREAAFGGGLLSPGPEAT

[2] = biological target: T1, RelB (mouse (endogenous in BMDM-derived TAM)); test: co-IP; immunoprecipitation with RelB antibody from baicalin-treated TAM; immunoblotting; IP samples normalised by RelB
[3] = biological target: T2, TRAF2 (mouse (endogenous in BMDM-derived TAM)) (UniProt P39429); test: co-IP; immunoprecipitation with LC3 and TRAF2 antibody from TAM after baicalin intervention (Supplementary Figure S6)
T2 sequence: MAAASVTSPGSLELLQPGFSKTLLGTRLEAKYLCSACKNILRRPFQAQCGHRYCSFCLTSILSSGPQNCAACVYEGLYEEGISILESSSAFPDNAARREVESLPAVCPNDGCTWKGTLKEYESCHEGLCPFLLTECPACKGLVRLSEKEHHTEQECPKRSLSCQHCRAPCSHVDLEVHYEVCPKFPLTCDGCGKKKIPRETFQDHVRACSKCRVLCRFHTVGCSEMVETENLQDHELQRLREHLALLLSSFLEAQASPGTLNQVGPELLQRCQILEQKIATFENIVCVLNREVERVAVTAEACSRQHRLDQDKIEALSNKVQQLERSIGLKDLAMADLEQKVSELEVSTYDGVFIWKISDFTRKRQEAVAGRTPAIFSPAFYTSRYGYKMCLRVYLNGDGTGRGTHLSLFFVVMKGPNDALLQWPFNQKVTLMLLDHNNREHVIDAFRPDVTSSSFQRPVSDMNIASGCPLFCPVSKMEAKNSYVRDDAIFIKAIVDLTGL

[4] = biological target: T1, RelB (mouse (endogenous in BMDM-derived TAM)); test: co-IP; immunoprecipitation with RelB antibody from TAM treated with or without baicalin; immunoblotting; IP samples normalised by RelB; remark: listed apart in the source

- binding [1]: binds
Molecule: IκBα (from UniProt Q9Z1E3 1-314)
- binding [2]: no binding (condition: with baicalin treatment)

- binding [3]: binds
Molecule: Atg5 (from UniProt Q99J83 1-275)

- binding [4]: binds
B1: p52 (protein, UniProt Q9WTK5 1-454)
chain: MDNCYDPGLDGIPEYDDFEFSPSIVEPKDPAPETADGPYLVIVEQPKQRGFRFRYGCEGPSHGGLPGASSEKGRKTYPTVKICNYEGPAKIEVDLVTHSDPPRAHAHSLVGKQCSELGVCAVSVGPKDMTAQFNNLGVLHVTKKNMMEIMIQKLQRQRLRSKPQGLTEAERRELEQEAKELKKVMDLSIVRLRFSAFLRASDGSFSLPLKPVISQPIHDSKSPGASNLKISRMDKTAGSVRGGDEVYLLCDKVQKDDIEVRFYEDDENGWQAFGDFSPTDVHKQYAIVFRTPPYHKMKIERPVTVFLQLKRKRGGDVSDSKQFTYYPLVEDKEEVQRKRRKALPTFSQPFGGGSHMGGGSGGSAGGYGGAGGGGSLGFFSSSLAYNPYQSGAAPMGCYPGGGGGAQMAGSRRDTDAGEGAEEPRTPPEAPQGEPQALDTLQRAREYNARLFGLA
